Reference: US11517617B2, “Methods and compositions for preventing influenza infection” (THE UNIVERSITY OF MELBOURNE, priority 2017, dated 2022)
Some of these results come from one statement about several compounds together.

Test system: CD8^+ T cells
Parameters: species or system HHD-A2 mice
Settings: mouse, in vivo

## SLNDDGLDNHTILL (Influenza B virus) [HA538-551]
  CD8^+ T cell response, mean: < 0.5 % of CD8^+ T cells

## VLSQFGQEHRL (Influenza B virus) [NS1264-274]
  CD8^+ T cell response, mean: < 0.5 % of CD8^+ T cells
